Reference: doi:10.1101/2020.01.31.926402
No constants are given. Whether binding was seen depends on the method and setting. Binding seen in cells or lysates may run through a third protein. These calls come from enrichment with a bait or labelling near it, and not all partners need be listed.

What was measured:
Experiment in all cases: affinity purification with mass spectrometry
BR-FLAG (human) = BR-FLAG (human) (UniProt Q69YU5)
[1] = biological target: BRAWNIN (BR), endogenous human (human (endogenous in HEK293T)) (UniProt Q69YU5)
[2] = biological target: BRAWNIN (BR), untagged, over-expressed (human) (UniProt Q69YU5)

Measured: binding

B1: GHITM, human (protein, UniProt Q9H3K2 46-345)
chain: ATKTRIGIRRGRTGQELKEAALEPSMEKIFKIDQMGRWFVAGGAAVGLGALCYYGLGLSNEIGAIEKAVIWPQYVKDRIHSTYMYLAGSIGLTALSAIAISRTPVLMNFMMRGSWVTIGVTFAAMVGAGMLVRSIPYDQSPGPKHLAWLLHSGVMGAVVAPLTILGGPLLIRAAWYTAGIVGGLSTVAMCAPSEKFLNMGAPLGVGLGLVFVSSLGSMFLPPTTVAGATLYSVAMYGGLVLFSMFLLYDTQKVIKRAEVSPMYGVQKYDPINSMLSIYMDTLNIFMRVATMLATGGNRKK
binds: all assays above
